According to the supplement of paper PMC9254222:
In all, about 1,100 compounds were measured (“Wnt reporter firefly/Renilla luciferase ratio relative to plate median”: median about 1.1, highest 2% from about 1.6 on). This is a selection; strong and weak results do not stand in their true shares.

System: HEK293T (UBE3A T485A transfected, BAR Wnt reporter)
Assay: Wnt reporter firefly/Renilla luciferase ratio relative to plate median (fold (linear ratio)); higher = more Wnt/beta-catenin reporter activation
Conditions: 24 h
Procedure, shortened: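 Using Fugene 6, HEK293T cells in white 384-well plates (4500 cells/well; DMEM, 10% FBS, 37°C, 5% CO2) were transfected with a BAR firefly luciferase Wnt reporter, TK-Renilla and an expression plasmid. After four hours, robots dosed the chemicals at 0.01–100 uM, and a Dual-Glo luciferase readout followed 24 h later. Per-plate median-centred firefly/Renilla ratios gave Wnt activity, while per-plate median-centred raw Renilla signals gave cell health. Four biological replicates were averaged.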

SMILES | Wnt reporter firefly/Renilla luciferase ratio (concentration: 0.01 uM) | Wnt reporter firefly/Renilla luciferase ratio (concentration: 0.1 uM) | Wnt reporter firefly/Renilla luciferase ratio (concentration: 1 uM) | Wnt reporter firefly/Renilla luciferase ratio (concentration: 10 uM) | Wnt reporter firefly/Renilla luciferase ratio (concentration: 100 uM)
CN(C)C(=O)Nc1cccc(C(F)(F)F)c1 [Fluometuron] | 1.3 | 1.43 | 1.1 | 0.996 | 1.04
N#Cc1ccc(N(CC(N)=O)CC(F)(F)F)cc1C(F)(F)F |  | 0.925 | 0.896 | 0.684 | 0.562
CC(C)(C)C(O)/C(=C\c1ccc(Cl)cc1Cl)n1cncn1 (stereo not given) [Diniconazole] | 1.09 | 1.05 | 0.977 | 0.744 | 
CCN(CC)CCO [N,N-Diethylethanolamine] |  | 1.01 | 1.07 | 0.956 | 1.44
COc1cc2c(c(OC)c1OC)-c1ccc(OC)c(=O)cc1[C@@H](NC(C)=O)CC2 [Colchicine] |  | 0.867 |  |  | 
FC(F)C(F)(F)OCC(Cn1cncn1)c1ccc(Cl)cc1Cl (stereo not given) [Tetraconazole] | 0.973 | 0.814 | 1.03 | 0.808 | 
CCC(C)c1ccc(O)cc1 (stereo not given) [4-(Butan-2-yl)phenol] |  | 0.977 | 0.934 | 1.18 | 1.1
CCOP(=O)(OCC)Oc1nc(Cl)c(Cl)cc1Cl [Chlorpyrifos oxon] | 0.967 | 0.876 | 1.02 | 0.861 | 0.591
CCNc1nc(Cl)nc(NC(C)C)n1 [Atrazine] | 1.45 | 1.38 | 1.15 | 1.29 | 1.18
Oc1cc(Cl)ccc1Oc1ccc(Cl)cc1Cl [Triclosan] | 1.17 | 1.13 | 1.02 | 1.06 | 0.692
CS/C(C)=N/OC(=O)N(C)SN(C)C(=O)O/N=C(\C)SC [Thiodicarb] |  | 1.86 |  |  | 
CCCCCCCCCc1ccc(O)cc1 [4-Nonylphenol, branched] |  | 1.17 | 1.09 | 0.969 | 1.71
Cc1ccc([N+](=O)[O-])cc1N [2-Methyl-5-nitroaniline] |  | 0.875 | 0.846 | 0.995 | 0.931
CCC(C)(CC)c1cc(NC(=O)c2c(OC)cccc2OC)on1 [Isoxaben] | 1.21 | 1.06 | 1.09 | 0.952 | 0.423
CC(C)(C)c1ccccc1O [2-tert-Butylphenol] |  | 1.53 | 1.54 | 1.25 | 0.813
Nc1c(Cl)cc([N+](=O)[O-])cc1Cl [Dicloran] | 1.85 | 1.64 |  |  | 
Cc1ccc(O)cc1C [3,4-Dimethylphenol] |  | 0.817 | 0.98 | 1.07 | 1.4
C[N+]1(C)CCCCC1.[Cl-] [Mepiquat chloride] | 0.721 | 0.838 | 0.918 | 1.18 | 1.04
CNc1cnn(-c2cccc(C(F)(F)F)c2)c(=O)c1Cl [Norflurazon] | 1.24 | 1.47 | 1.14 | 1.02 | 0.762
CCC(=O)C(CC(C)N(C)C)(c1ccccc1)c1ccccc1.Cl (stereo not given) [Methadone hydrochloride] |  | 1.33 | 1.03 | 1.13 | 0.271
ClC(Cl)=C(c1ccc(Cl)cc1)c1ccc(Cl)cc1 |  | 1.14 | 1.06 | 1.14 | 1.55
CCOP(=O)(NC(C)C)Oc1ccc(SC)c(C)c1 (stereo not given) [Fenamiphos] | 0.946 | 0.758 | 0.93 | 0.83 | 0.243

A second format for some results above:
SMILES	Wnt reporter firefly/Renilla luciferase ratio (concentration: 0.01 uM)	Wnt reporter firefly/Renilla luciferase ratio (concentration: 0.1 uM)	Wnt reporter firefly/Renilla luciferase ratio (concentration: 1 uM)	Wnt reporter firefly/Renilla luciferase ratio (concentration: 10 uM)	Wnt reporter firefly/Renilla luciferase ratio (concentration: 100 uM)
COc1cc2c(c(OC)c1OC)-c1ccc(OC)c(=O)cc1[C@@H](NC(C)=O)CC2 [Colchicine]		0.867			
FC(F)C(F)(F)OCC(Cn1cncn1)c1ccc(Cl)cc1Cl (stereo not given) [Tetraconazole]	0.973	0.814	1.03	0.808	

Following part.

SMILES | Wnt reporter firefly/Renilla luciferase ratio (concentration: 0.01 uM) | Wnt reporter firefly/Renilla luciferase ratio (concentration: 0.1 uM) | Wnt reporter firefly/Renilla luciferase ratio (concentration: 1 uM) | Wnt reporter firefly/Renilla luciferase ratio (concentration: 10 uM) | Wnt reporter firefly/Renilla luciferase ratio (concentration: 100 uM)
CNC(=O)N(C)c1nnc(C(C)(C)C)s1 [Tebuthiuron] | 1.35 | 1.39 | 1.32 | 1.67 | 1.5
[N-]=[N+]=[N-].[Na+] [Sodium Azide] | 0.757 |  | 1.04 | 0.927 | 
[N-]=[N+]=[N-].[Na+] [Sodium azide] |  | 0.827 |  |  | 0.529
CCCCOCN(C(=O)CCl)c1c(CC)cccc1CC [Butachlor] | 1.17 | 1.2 | 1.02 | 0.788 | 0.293
CSC1=N[C@@](C)(c2ccccc2)C(=O)N1Nc1ccccc1 [Fenamidone] | 1.15 | 1.22 | 1.07 | 0.523 | 0.391
Cc1cc2c3c(c1)C(c1ccccc1)=N[C@@H](NC(=O)c1ccncc1)C(=O)N3CC2 |  | 1.17 | 1.15 | 1.35 | 0.366
CC(C)(C)c1cc(C(C)(C)C)c(O)c(C(C)(C)C)c1 [2,4,6-Tris(tert-butyl)phenol] |  | 0.958 | 0.98 | 0.697 | 0.822
NCCO.O=C(O)c1nc(Cl)ccc1Cl [Clopyralid-olamine] | 0.868 | 0.94 | 1.18 | 1.56 | 2.61
N#Cc1cccnc1 [3-Pyridinecarbonitrile] |  | 0.974 | 1.13 | 1.25 | 1.35
O=C(O)C(F)(F)C(F)(F)C(F)(F)C(F)(F)C(F)(F)C(F)(F)C(F)(F)C(F)(F)F |  | 1.29 | 0.95 | 1.12 | 0.369
O=C(N[C@H](c1ccccc1)[C@@H]1CN2CCC1CC2)c1c(Cl)ccc(C(F)(F)F)c1Cl |  | 1.24 | 0.995 | 0.425 | 0.38
CCC(C)(c1ccc(O)cc1)c1ccc(O)cc1 [Bisphenol B] |  | 1.11 | 0.969 | 0.999 | 0.0398
CC(C)Oc1cc(-n2nc(C(C)(C)C)oc2=O)c(Cl)cc1Cl [Oxadiazon] | 0.838 | 0.914 | 1.14 | 1.09 | 0.281
O=[As][O-].[Na+] [Sodium arsenite] | 1.25 | 0.998 | 0.538 |  | 
O=[N+]([O-])c1ccc(Cl)cc1 [1-Chloro-4-nitrobenzene] |  | 1.04 | 1.2 | 1.02 | 1.38
CC(C)(O)c1cnn2c(-c3ccc(F)c(-c4c(F)cccc4C#N)c3)cnc2n1 |  | 1.06 | 0.767 | 0.811 | 0.559
O=C(O)c1nc(Cl)ccc1Cl [Clopyralid] | 1.17 | 1.81 | 1.02 | 0.988 | 1.12
CC(C)C1(C)N=C(c2nc3ccccc3cc2C(=O)O)NC1=O (stereo not given) [Imazaquin] | 0.867 | 0.916 | 1.12 | 1.04 | 1.23
CN(C)c1nc(=O)n(C2CCCCC2)c(=O)n1C [Hexazinone] | 1.04 | 1.28 | 1.13 | 1.31 | 1.31
CCCCCCCCCc1ccc(O)cc1 [4-Nonylphenol] |  | 0.995 | 0.971 | 1.16 | 0.953
CC(C)(c1ccccc1)c1ccc(O)cc1 [4-Cumylphenol] |  | 0.985 | 1.25 | 1.06 | 
